# Measured values from the supplement of paper PMC4635364.
# Where a name gives a salt, the structure may show the parent alone. The list shows a part of the results. Repeats in this data set agree poorly, so a single value says little.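 Human fetal ventral-midbrain neural progenitor line ReNCell VM, differentiated without mitogens. Images stained for doublecortin (early neurons) or tyrosine hydroxylase (dopaminergic neurons) were scored by blinded raters against untreated wells (0 = no change). Repeats and both raters were averaged, and compounds averaging 2 or higher were picked as hits for retesting.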
# Assays:
# [1] = system: ReNCell VM; experiment: neuronal differentiation score (DCX+ cell fraction vs untreated, manual image score) (score (-3 to 3)); higher = more neuronal differentiation; details: 2 uM, 2 weeks
# [2] = system: ReNCell VM; experiment: dopaminergic neuron differentiation score (TH+ cell fraction vs untreated, manual image score) (score (0 to 3)); higher = more TH+ dopaminergic neuron differentiation; details: 2 uM, 4 weeks, BDNF 10 ng/ml + GDNF 10 ng/ml
compound,measurement,setting,value
CC(C)c1ccc2oc3nc(N)c(C(=O)O)cc3c(=O)c2c1,neuronal differentiation score,[1]; library: Spectrum,inactive: 0
same,dopaminergic neuron differentiation score,[2]; library: Spectrum,inactive: 0
O=C(Oc1cccc2cccnc12)c1ccccc1,neuronal differentiation score,[1]; library: Spectrum,inactive: 0
same,dopaminergic neuron differentiation score,[2]; library: Spectrum,inactive: 0
Cc1nn(C)c2nc(NNC(=O)Nc3cc(Cl)nc(Cl)c3)cc(C(C)C)c12,neuronal differentiation score,[1]; library: Tocriscreen,inactive: 0
same,dopaminergic neuron differentiation score,[2]; library: Tocriscreen,inactive: 0
NC(Cn1ccc(=O)c(O)c1)C(=O)O (configuration not stated) [Mimosine],neuronal differentiation score,[1]; library: Phytochemical,inactive: -1
same,dopaminergic neuron differentiation score,[2]; library: Phytochemical,inactive: 0
CC1CCc2c(N3CCC(O)CC3)c(F)cc3c(=O)c(C(=O)O)cn1c23 (configuration not stated) [Nadifloxacin],neuronal differentiation score,[1]; library: Prestwick,inactive: 0
same,dopaminergic neuron differentiation score,[2]; library: Prestwick,inactive: 0
Nc1c(S(=O)(=O)O)cc(Nc2ccc(Nc3nc(Cl)nc(Nc4cccc(S(=O)(=O)O)c4)n3)c(S(=O)(=O)O)c2)c2c1C(=O)c1ccccc1C2=O [Reactive Blue 2],neuronal differentiation score,[1]; library: LOPAC,inactive: 0
same,dopaminergic neuron differentiation score,[2]; library: LOPAC,inactive: 0
COC(=O)CC[C@@H](C)[C@H]1CC[C@H]2[C@@H]3CC[C@@H]4C[C@H](O)CC[C@]4(C)[C@H]3C[C@H](O)[C@]12C,neuronal differentiation score,[1]; library: Spectrum,inactive: 0
same,dopaminergic neuron differentiation score,[2]; library: Spectrum,inactive: 0
CC(=O)N(c1onc(C)c1C)S(=O)(=O)c1ccc(N)cc1,neuronal differentiation score,[1]; library: Spectrum,inactive: 1
same,dopaminergic neuron differentiation score,[2]; library: Spectrum,inactive: 0
CCCC(=O)Nc1ccc(OCC(O)CNC(C)C)c(C(C)=O)c1 (configuration not stated) [Acebutolol hydrochloride],neuronal differentiation score,[1]; library: Prestwick,inactive: 0
same,dopaminergic neuron differentiation score,[2]; library: Prestwick,inactive: 0
CC(=O)Oc1ccc(O)cc1,neuronal differentiation score,[1]; library: Spectrum,inactive: 0
same,dopaminergic neuron differentiation score,[2]; library: Spectrum,inactive: 0
COc1cc2c(c(OC)c1OC)-c1c(cc3c(c1OC)OCO3)C[C@H](C)[C@](C)(O)[C@H]2OC(=O)c1ccccc1 [gomisin C],neuronal differentiation score,[1]; library: Natural,inactive: 0
same,dopaminergic neuron differentiation score,[2]; library: Natural,inactive: 0
NS(=O)(=O)c1cccc2c1c([N+](=O)[O-])cc1nc(O)c(O)nc12 [NBQX disodium],neuronal differentiation score,[1]; library: LOPAC,inactive: 0
same,dopaminergic neuron differentiation score,[2]; library: LOPAC,inactive: 0
CC(=O)NCCCS(=O)(=O)O [Acamprosate calcium],neuronal differentiation score,[1]; library: Prestwick,inactive: 0
same,dopaminergic neuron differentiation score,[2]; library: Prestwick,inactive: 0
N#C/C(=C\c1ccc(O)c(O)c1)C(=O)c1ccc(O)c(O)c1 [Tyrphostin AG 538],neuronal differentiation score,[1]; library: LOPAC,inactive: 0
same,dopaminergic neuron differentiation score,[2]; library: LOPAC,inactive: 0
Cc1nc2sccn2c(=O)c1CCN1CCC(=C(c2ccccc2)c2ccc(F)cc2)CC1,neuronal differentiation score,[1]; library: Tocriscreen,inactive: 0
same,dopaminergic neuron differentiation score,[2]; library: Tocriscreen,inactive: 0
CNC(=O)[C@H]1O[C@@H](n2cnc3c(NCc4ccc(N)cc4)ncnc32)[C@H](O)[C@@H]1O,neuronal differentiation score,[1]; library: LOPAC,inactive: 0
same,dopaminergic neuron differentiation score,[2]; library: LOPAC,inactive: 0
COC(=O)C1=C(C)NC(C)=C(C(=O)OC)C1c1ccccc1[N+](=O)[O-],neuronal differentiation score,[1]; library: Spectrum,inactive: 1
same,dopaminergic neuron differentiation score,[2]; library: Spectrum,inactive: 0
CCc1nn(CCCN2CCN(c3cccc(Cl)c3)CC2)c(=O)n1CCOc1ccccc1 [Nefazodone HCl],neuronal differentiation score,[1]; library: Prestwick,inactive: 0
same,dopaminergic neuron differentiation score,[2]; library: Prestwick,active: 3
CC[N+](CC)(CC(=O)Nc1c(C)cccc1C)Cc1ccccc1 [Denatonium benzoate],neuronal differentiation score,[1]; library: Prestwick,inactive: 0
same,dopaminergic neuron differentiation score,[2]; library: Prestwick,inactive: 0
Nc1nc(NCCc2ccc(O)cc2)nc2nc(-c3ccco3)nn12,neuronal differentiation score,[1]; library: Tocriscreen,inactive: 0
same,dopaminergic neuron differentiation score,[2]; library: Tocriscreen,inactive: 0
CC[C@H]1OC(=O)[C@H](C)[C@@H](O[C@H]2C[C@@](C)(OC)[C@@H](O)[C@H](C)O2)[C@H](C)[C@@H](O[C@@H]2O[C@H](C)C[C@H](N(C)C)[C@H]2O)[C@](C)(O)C[C@@H](C)[C@@H]2N[C@@H](COCCOC)O[C@H]([C@H]2C)[C@]1(C)O,neuronal differentiation score,[1]; library: Spectrum,inactive: 1
same,dopaminergic neuron differentiation score,[2]; library: Spectrum,inactive: 0
Cc1cc2nc3c(=O)[nH]c(=O)nc-3n(CC(O)C(O)C(O)CO)c2cc1N(C)C (configuration not stated) [Roseoflavin],neuronal differentiation score,[1]; library: Phytochemical,inactive: 0
same,dopaminergic neuron differentiation score,[2]; library: Phytochemical,inactive: 0
CCCc1ncc(C[n+]2ccccc2C)c(N)n1,neuronal differentiation score,[1]; library: Spectrum,inactive: 0
same,dopaminergic neuron differentiation score,[2]; library: Spectrum,inactive: 0
C/C=C/c1ccc(OC)cc1,neuronal differentiation score,[1]; library: Spectrum,inactive: 0
same,dopaminergic neuron differentiation score,[2]; library: Spectrum,inactive: 1
CC(=O)N(CC(O)CN(C(C)=O)c1c(I)c(C(=O)NCC(O)CO)c(I)c(C(=O)NCC(O)CO)c1I)c1c(I)c(C(=O)NCC(O)CO)c(I)c(C(=O)NCC(O)CO)c1I (configuration not stated),neuronal differentiation score,[1]; library: Spectrum,inactive: 1
same,dopaminergic neuron differentiation score,[2]; library: Spectrum,inactive: 0
CO[C@@]1(NC(=O)C2SC(=C(C(N)=O)C(=O)O)S2)C(=O)N2C(C(=O)O)=C(CSc3nnnn3C)CS[C@@H]21 (some centres not stated),neuronal differentiation score,[1]; library: Spectrum,inactive: 0
same,dopaminergic neuron differentiation score,[2]; library: Spectrum,inactive: 0
CC(C)Oc1ccc2c(=O)c3cc(C(=O)O)ccc3oc2c1,neuronal differentiation score,[1]; library: Tocriscreen,inactive: 0
same,dopaminergic neuron differentiation score,[2]; library: Tocriscreen,inactive: 0
"Cc1cc2c3c(cc4cccc(n1)c42)C(=O)C=CC=3 [2-methyl-naphtho[1,2,3-de]quinolin-8-one]",neuronal differentiation score,[1]; library: Natural,inactive: 0
same,dopaminergic neuron differentiation score,[2]; library: Natural,inactive: 0
CC(C(=O)O)c1cccc(Oc2ccccc2)c1 (configuration not stated) [Fenoprofen calcium salt dihydrate],neuronal differentiation score,[1]; library: Prestwick,inactive: 0
same,dopaminergic neuron differentiation score,[2]; library: Prestwick,inactive: 0
CC(C)n1c(/C=C/C(O)CC(O)CC(=O)O)c(-c2ccc(F)cc2)c2ccccc21 (configuration not stated) [Fluvastatin sodium salt],neuronal differentiation score,[1]; library: Prestwick,inactive: 1
same,dopaminergic neuron differentiation score,[2]; library: Prestwick,inactive: 0
CS(=O)(=O)CCNCc1nc(-c2ccc3ncnc(Nc4ccc(OCc5cccc(F)c5)c(Cl)c4)c3c2)cs1,neuronal differentiation score,[1]; library: Tocriscreen,inactive: 0
same,dopaminergic neuron differentiation score,[2]; library: Tocriscreen,inactive: 0

# 5 entries picked at random from the list so far:
compound,measurement,setting,value
COc1cc2c(c(OC)c1OC)-c1c(cc3c(c1OC)OCO3)C[C@H](C)[C@](C)(O)[C@H]2OC(=O)c1ccccc1 [gomisin C],neuronal differentiation score,[1]; library: Natural,inactive: 0
CC[N+](CC)(CC(=O)Nc1c(C)cccc1C)Cc1ccccc1 [Denatonium benzoate],neuronal differentiation score,[1]; library: Prestwick,inactive: 0
"Cc1cc2c3c(cc4cccc(n1)c42)C(=O)C=CC=3 [2-methyl-naphtho[1,2,3-de]quinolin-8-one]",dopaminergic neuron differentiation score,[2]; library: Natural,inactive: 0
NC(Cn1ccc(=O)c(O)c1)C(=O)O (configuration not stated) [Mimosine],neuronal differentiation score,[1]; library: Phytochemical,inactive: -1
N#C/C(=C\c1ccc(O)c(O)c1)C(=O)c1ccc(O)c(O)c1 [Tyrphostin AG 538],neuronal differentiation score,[1]; library: LOPAC,inactive: 0
